PMC7940618, “Specific inhibition of the Survivin–CRM1 interaction by peptide-modified molecular tweezers” (Nature Communications, 2021)
No constants are given. Whether binding was seen depends on the method and setting. For part of these data: In cells and extracts the contact can be indirect. Some results given as binding are weak or reduced against the parent protein; the word gives no strength.

The chains behind the UniProt entries cited, without tags or fusion partners. Where a name states a change or a piece, a line headed by the entry shows the natural chain unless it says otherwise. A line that says so, or that is headed by a name, gives the form on record, which may keep a tag or linker. Residues count along the entry.
UniProt O15392: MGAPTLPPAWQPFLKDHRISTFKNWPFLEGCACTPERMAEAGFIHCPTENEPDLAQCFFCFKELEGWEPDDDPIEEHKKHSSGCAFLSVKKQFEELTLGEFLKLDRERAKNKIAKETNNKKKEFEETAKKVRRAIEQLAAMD
GST-Survivin120: residues 1-120 of O15392
GST-Survivin120-K90/103T (O15392, form named): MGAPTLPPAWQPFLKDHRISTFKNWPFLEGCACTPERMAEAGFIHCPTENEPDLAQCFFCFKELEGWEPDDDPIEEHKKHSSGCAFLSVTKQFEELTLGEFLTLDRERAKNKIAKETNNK
UniProt O14980: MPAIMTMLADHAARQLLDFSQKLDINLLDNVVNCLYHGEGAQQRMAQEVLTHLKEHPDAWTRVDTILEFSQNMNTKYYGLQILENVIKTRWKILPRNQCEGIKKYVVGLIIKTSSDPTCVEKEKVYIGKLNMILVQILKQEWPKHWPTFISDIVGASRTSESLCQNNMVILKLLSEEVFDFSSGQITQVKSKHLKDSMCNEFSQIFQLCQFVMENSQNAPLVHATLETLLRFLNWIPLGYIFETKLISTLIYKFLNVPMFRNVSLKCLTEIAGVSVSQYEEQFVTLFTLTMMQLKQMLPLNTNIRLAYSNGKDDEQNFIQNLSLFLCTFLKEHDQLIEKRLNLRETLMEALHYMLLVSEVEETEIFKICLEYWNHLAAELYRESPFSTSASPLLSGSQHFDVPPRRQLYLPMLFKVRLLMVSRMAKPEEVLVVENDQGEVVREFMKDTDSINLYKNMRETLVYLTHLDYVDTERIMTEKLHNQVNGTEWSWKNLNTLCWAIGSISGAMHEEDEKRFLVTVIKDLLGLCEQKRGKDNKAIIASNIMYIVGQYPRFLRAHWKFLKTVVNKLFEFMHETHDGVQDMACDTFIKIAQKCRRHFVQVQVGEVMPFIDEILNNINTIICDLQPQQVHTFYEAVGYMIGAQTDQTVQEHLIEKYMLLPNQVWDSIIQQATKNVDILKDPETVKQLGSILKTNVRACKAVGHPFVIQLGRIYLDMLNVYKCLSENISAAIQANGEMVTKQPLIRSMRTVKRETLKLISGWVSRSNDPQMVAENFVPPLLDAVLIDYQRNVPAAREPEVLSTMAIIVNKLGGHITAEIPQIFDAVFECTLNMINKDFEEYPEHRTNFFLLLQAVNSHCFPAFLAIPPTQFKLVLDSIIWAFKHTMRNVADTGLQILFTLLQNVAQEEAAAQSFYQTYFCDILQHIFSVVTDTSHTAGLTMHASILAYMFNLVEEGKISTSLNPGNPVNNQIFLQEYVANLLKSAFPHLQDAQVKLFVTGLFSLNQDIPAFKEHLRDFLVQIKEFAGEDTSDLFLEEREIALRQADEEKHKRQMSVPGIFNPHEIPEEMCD

Legend:
[1] = target: GST-Survivin120-K90/103T (human) (UniProt O15392); assay: pull-down; GST-Survivin120 or GST-Survivin120-K90/103T on GSH beads, with no ligand or 50 µM tweezer conjugate, then CRM1, RanQ69L and 2 mM dGTP; PBS pH 7.4, 1 mM DTT, Triton X-100, room temperature; blot for CRM1 and GST; both purified
[2] = target: GST-Survivin120 (human) (UniProt O15392); assay: as above
[3] = target: GST-CRM1 (UniProt O14980); assay: pull-down; GST-CRM1 on GSH-Sepharose beads, 293T lysate with Survivin142-HA, with RanQ69L and 2 mM dGTP; PBS pH 7.4, 1 mM DTT, Triton X-100, room temperature; blot for HA and GST; only the target purified

Row | Substance | binding [1] | binding [2] | binding [3]
1 | CRM1 (recombinant, prey protein) (from UniProt O14980 1-1071) (receptor) | binds | binds | 
2 | Survivin142-HA (from UniProt O15392 1-142) |  |  | binds
